According to PubChem BioAssay AID1671190 (National Center for Advancing Translational Sciences (NCATS), 2021):
Where “and” joins values, the source holds several entries; their conditions need not be identical. Equal entries are not always repeated. In all, about 580,000 compounds went through this assay and about 6,100 (1.1%) were called active. Inconclusive results, whose numbers are uncertain, are shown with a selection of clear calls. Calls come from the whole dose curve; as a rule, active = well fitted inhibition curve with a large enough effect; inconclusive = small, poorly fitted or top-dose-only effect, or another doubt; inactive = no such curve, though single readings can be large or run the other way. Potencies of inconclusive entries are doubtful fits and often do not repeat.

Chains of the proteins cited; added tags and fusions are not shown. Lines headed by an entry give the natural chain unless they say otherwise; changes in a name come on top.
UniProt P18054: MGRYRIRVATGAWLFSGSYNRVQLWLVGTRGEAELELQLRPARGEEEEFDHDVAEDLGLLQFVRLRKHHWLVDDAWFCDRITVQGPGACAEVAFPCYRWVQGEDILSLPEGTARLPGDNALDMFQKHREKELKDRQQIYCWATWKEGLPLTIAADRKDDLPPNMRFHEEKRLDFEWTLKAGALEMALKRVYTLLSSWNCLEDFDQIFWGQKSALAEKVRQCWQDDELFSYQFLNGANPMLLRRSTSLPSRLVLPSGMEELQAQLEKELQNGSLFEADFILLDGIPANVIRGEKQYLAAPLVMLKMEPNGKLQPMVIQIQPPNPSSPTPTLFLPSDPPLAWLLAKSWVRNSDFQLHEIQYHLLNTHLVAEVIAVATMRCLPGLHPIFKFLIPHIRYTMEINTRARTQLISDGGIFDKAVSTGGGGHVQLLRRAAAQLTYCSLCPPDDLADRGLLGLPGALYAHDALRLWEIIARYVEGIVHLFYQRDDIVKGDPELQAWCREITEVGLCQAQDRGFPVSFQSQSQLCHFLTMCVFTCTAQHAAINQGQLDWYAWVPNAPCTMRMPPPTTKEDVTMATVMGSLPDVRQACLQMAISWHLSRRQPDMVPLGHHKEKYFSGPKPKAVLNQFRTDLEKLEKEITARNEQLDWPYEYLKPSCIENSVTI

Biological target: Polyunsaturated fatty acid lipoxygenase ALOX12 (Homo sapiens) (UniProt P18054)
Assay: Primary qHTS assay for inhibitors of human arachidonate 12S-lipoxygenase (ALOX12): Round 2
Details: purified 12hLO, xylenol orange hydroperoxide absorbance; activity change, negative = inhibition: at 108 µM (top of the series) unless noted
In short: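 Purified human 12hLO (150 nM final) in 25 mM Hepes, 0.01% Triton X-100, pH 7.0 was preincubated 15 min at room temperature with compound. Then 40 uM arachidonic acid was added, 30 min. Hydroperoxide was read by Fe-XO absorbance ratio 573/405 nm.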
% is set by controls: 0 for no effect and ±100 for the full control effect; potency is the fitted concentration of half-maximal effect.

SMILES	activity change, negative = inhibition	Potency
CCC(=O)Nc1nc2c(OC)cc(NS(=O)(=O)c3cc(F)ccc3F)cc2s1	inactive: 26%	–
CCc1nnc(NC(=O)c2cc(OC)c(OC)cc2[N+](=O)[O-])s1	–	inconclusive: 70.8 µM [inhibitor, partial curve, poor fit]
Nc1nc(-c2ccco2)nn1C(=O)c1ccccc1	inactive: -5.35%	–
CCCn1c(C)cc(/C=C(\C#N)C(=O)OCC(=O)Nc2cc(OC)c(OC)c(OC)c2)c1C	–	inconclusive: 28.2 µM [inhibitor, partial curve, poor fit]
O=C1NC(=S)NC1=Cc1ccccc1O	–	inconclusive: 50.1 µM [inhibitor, partial curve, poor fit]
O=C(O)c1ccc2c(c1)C(=O)N(Cc1ccc3c(c1)OCO3)C2=O	inactive: -10.9%	–
COc1ccc(CN2CCSCC2)cc1O	–	inconclusive: 0.447 µM [inhibitor, full curve, poor fit]
CC(C)c1ccc(OCC(=O)NNC(=S)NC(=O)C2CC2)cc1	–	inconclusive: 44.7 µM [inhibitor, partial curve, poor fit]
CC(=O)c1cccc(NC(=O)COc2c(C)[nH]ccc2=O)c1	inactive: 14.5%	–
Cn1cc(C(=O)NC2CC2)c(-c2ccc3c(c2)OCCCO3)n1	inactive: -24.9%	–
CC(Oc1ccc(Cl)cc1Cl)c1nc(-c2ccc(NC(=O)c3ccncc3)cc2)no1 (stereo not drawn)	–	inconclusive: 44.7 µM [inhibitor, partial curve, poor fit]
FC(F)(F)c1ccc(/C=N/Nc2cccc(Cl)c2)cc1	–	inconclusive: 5.01 µM [inhibitor, full curve, poor fit]
COc1ccc(C(=O)N2CCC(c3c[nH]c4ccccc34)(c3c[nH]c4ccccc34)CC2)cc1	–	inconclusive: 1 µM [inhibitor, full curve, poor fit]
O=C(O)c1cc(NC(=O)c2ccccc2[N+](=O)[O-])ccc1O	–	inconclusive: 79.4 µM [inhibitor, single point]
Cc1noc(NS(=O)(=O)c2ccc(NC(=O)Cc3ccc([N+](=O)[O-])cc3)cc2)c1C	–	inconclusive: 50.1 µM [inhibitor, partial curve, poor fit]
CCOC(=O)c1ccc(NC(=O)C2CC(=O)Nc3cc(F)ccc32)cc1 (stereo not drawn)	inactive: -12.5%	–
Cc1cccc(NC(=O)c2ccc(NCC3CCCO3)c([N+](=O)[O-])c2)n1 (stereo not drawn)	inactive: -0.492%	–
O=C(O)C(Cc1ccccc1)N1C(=O)/C(=C/c2cccnc2)SC1=S (stereo not drawn)	–	inconclusive: 4.47 µM [inhibitor, full curve, poor fit]
COc1ccccc1CNC(=O)c1oc2c(c1C)-c1nn(Cc3ccc(Cl)cc3)cc1CC2	–	inconclusive: 11.2 µM [inhibitor, partial curve, poor fit]
COc1ccc2c(=O)c3c(=O)n(CCc4ccccc4)c(C(C)C)nc3oc2c1	–	inconclusive: 112 µM [inhibitor, single point]
O=[N+]([O-])c1cccnc1Oc1cccnc1	–	inconclusive: 112 µM [inhibitor, single point]

SMILES	activity change, negative = inhibition	Potency
CC(C)NC(=O)N(C)C[C@H]1OCCCC[C@@H](C)Oc2ccc(NC(=O)C3CCCCC3)cc2C(=O)N([C@H](C)CO)C[C@@H]1C	–	inconclusive: 35.5 µM [inhibitor, single point]
CCOC(=O)N1CCN(S(=O)(=O)c2ccc(C(=O)N(CCCN(C)C)c3nc4cc(OC)ccc4s3)cc2)CC1	–	inconclusive: 100 µM [inhibitor, single point]
COc1ccc(NC(=O)c2cc(C3CC3)nc3c2c(C)nn3-c2ccc(C)cc2)cc1OC	–	inconclusive: 112 µM [inhibitor, partial curve, poor fit]
CC(C)[C@H](NC(=O)c1ccccc1)C(=O)OCC(=O)Nc1ncc(Cl)cc1Cl	–	inconclusive: 100 µM [inhibitor, single point]
CC(C)N(Cc1nc(COc2ccccc2)no1)Cc1nccn1C	inactive: -7.58%	–
COc1cc(NC(=O)c2ccc(N3C(=O)CCS3(=O)=O)cc2)cc(OC)c1OC	inactive: 2.85%	–
O=[N+]([O-])c1cccc(CON=C2CCC3(CC2)OCCO3)c1	–	inconclusive: 141 µM [inhibitor, partial curve, poor fit]
O=C(CCl)Nc1ccc(Oc2cnc3ccccc3n2)cc1	–	inconclusive: 7.08 µM [inhibitor, full curve, poor fit]
Cc1cc(C)c(NC(=O)C2CCCCN2C)c(C)c1 (stereo not drawn)	–	inconclusive: 7.08 µM [inhibitor, full curve, poor fit]
O=C(NC[C@H]1OC[C@@H](NC2CCC2)[C@@H]1O)C1CC1	inactive: 39.6% [at 176 µM]	–
Cc1cc2oc(=O)cc(CN3CCCCC3C)c2cc1Cl (stereo not drawn)	–	active: 25.1 µM and active: 17.8 µM
CCOc1ccc(C(=O)OCC(=O)NC(N)=O)cc1OCC	inactive: -3.5%	–
COc1cccc(-c2cc3c(Nc4cccc(NS(C)(=O)=O)c4)nccc3n2C)c1	–	inconclusive: 50.1 µM [inhibitor, partial curve, poor fit]
CC(=O)c1ccc(N2CCN(C(=O)/C=C/c3cccs3)CC2)cc1	–	inconclusive: 100 µM [inhibitor, single point]
CC(C)CN(CC(C)C)S(=O)(=O)c1cc([N+](=O)[O-])ccc1N1CCCCCC1	–	inconclusive: 28.2 µM [inhibitor, partial curve, poor fit]
COc1ccc(OC)c(-n2c(-c3cccc(C)c3)n[nH]c2=S)c1	–	active: 35.5 µM
O=c1[nH]nc(-c2ccco2)c2c1Nc1nnnn1C2c1ccc(Cl)cc1 (stereo not drawn)	–	inconclusive: 50.1 µM [inhibitor, partial curve]
CCOC(=O)Nc1ccc2c(c1)N(C(=O)CN1CCN(C)CC1)c1ccccc1CC2	–	active: 5.01 µM
CC(C(=O)Nc1sccc1C(N)=O)N1C(=O)C2CC=CCC2C1=O (stereo not drawn)	–	inconclusive: 50.1 µM [inhibitor, partial curve, poor fit]
CCOC(=O)N1CCN(C(=S)NC(=O)c2ccnn2C)CC1	–	inconclusive: 7.94 µM [inhibitor, full curve, poor fit]
COc1ccc(Br)cc1CSC(=N)N	–	inconclusive: 50.1 µM [inhibitor, partial curve]

SMILES	activity change, negative = inhibition	Potency
Cn1ccsc1=NC(=O)c1ccc(=O)[nH]c1	–	inconclusive: 56.2 µM [inhibitor, partial curve, poor fit]
N#CC1=C(N)OC2=C(C(=O)CC(c3ccccc3)C2)C1c1ccc(F)cc1 (stereo not drawn)	–	inconclusive: 50.1 µM [inhibitor, partial curve, poor fit]
COc1cc(/C=N/OC(=O)c2ccc(C(F)(F)F)cc2)ccc1OCc1ccccc1	–	inconclusive: 1.26 µM [inhibitor, full curve, poor fit]
COc1ccc(OC)c(CNC(=O)CN2C(=O)CCn3nc(-c4cn(C)c5ccccc45)cc32)c1	–	inconclusive: 100 µM [inhibitor, partial curve, poor fit]
Cc1cc(C)c(NC(=O)C(C)OC(=O)c2ccc3ccccc3n2)c(C)c1 (stereo not drawn)	–	inconclusive: 39.8 µM [inhibitor, partial curve]
CN1C(=O)N(C)N(Cc2ccccc2)C(=O)N1Cc1ccccc1	inactive: 9.9%	–
N#Cc1ccc(NS(=O)(=O)c2ccc(-c3cnc(C4CC4)o3)cc2)cc1	–	inconclusive: 100 µM [inhibitor, partial curve, poor fit]
COc1ccc(CNC(=O)Cn2cnc3c(NCc4ccccc4)ncnc32)cc1	–	inconclusive: 158 µM [inhibitor, single point]
Fc1ccc(NC(=S)Nc2cccc(Cl)c2)cc1	–	inconclusive: 79.4 µM [inhibitor, partial curve, poor fit]
CCOc1ccc(-c2nc(CCl)cs2)cc1	–	inconclusive: 44.7 µM [inhibitor, partial curve, poor fit]
COc1ccccc1NC(=O)CSC1=NC(=O)C(NC(C)=O)C(=O)N1 (stereo not drawn)	–	inconclusive: 7.94 µM [inhibitor, full curve, poor fit]
CC1(C)Cc2cccc(OCC(=O)Nc3nccs3)c2O1	–	inconclusive: 70.8 µM [inhibitor, partial curve, poor fit]
NC(=O)CSc1nc2c(sc(=S)n2-c2ccccc2)c(=O)[nH]1	–	inconclusive: 70.8 µM [inhibitor, partial curve, poor fit]
O=C(c1ccco1)N1CCC[C@@]2(CCN(c3ccccc3)C2)C1	–	inconclusive: 31.6 µM [inhibitor, single point]
COc1ccccc1N(CC(O)Cn1ccnc1C)S(=O)(=O)c1ccc(C)cc1 (stereo not drawn)	–	inconclusive: 100 µM [inhibitor, partial curve, poor fit]
CCCOc1ccccc1/C=C1/C(=O)ON=C1C	–	active: 39.8 µM
CCc1nc2c(c(-c3ccc(Cl)cc3)n1)CCN(Cc1cc(C)on1)CC2	–	inconclusive: 4.47 µM [inhibitor, full curve]
COCCNC(=O)C[C@@H]1C[C@H]2O[C@H](CNC(=O)NCc3ccccc3)[C@@H](O)[C@H]2O1	–	inconclusive: 126 µM [inhibitor, single point]
CCOC(=O)C1=C(c2ccccc2)NC(=O)NC1c1ccc(O)c(Cl)c1 (stereo not drawn)	inactive: -15.7%	–
COc1cc(OC)c(C2N(c3ccc(Cl)c(Cl)c3)C(=O)C3CCCN32)cc1OC (stereo not drawn)	–	inconclusive: 79.4 µM [inhibitor, single point]
CNC(=O)c1ccc(Nc2nnc(-c3ccc(C)c(S(=O)(=O)N4CCOCC4)c3)c3ccccc23)cc1	–	inconclusive: 1.41 µM [inhibitor, full curve, poor fit]

An excerpt from above in order of molecular weight, rising.
SMILES	activity change, negative = inhibition	Potency
O=C(c1ccco1)N1CCC[C@@]2(CCN(c3ccccc3)C2)C1	–	inconclusive: 31.6 µM [inhibitor, single point]
N#CC1=C(N)OC2=C(C(=O)CC(c3ccccc3)C2)C1c1ccc(F)cc1 (stereo not drawn)	–	inconclusive: 50.1 µM [inhibitor, partial curve, poor fit]
Cc1cc(C)c(NC(=O)C(C)OC(=O)c2ccc3ccccc3n2)c(C)c1 (stereo not drawn)	–	inconclusive: 39.8 µM [inhibitor, partial curve]
COc1ccccc1N(CC(O)Cn1ccnc1C)S(=O)(=O)c1ccc(C)cc1 (stereo not drawn)	–	inconclusive: 100 µM [inhibitor, partial curve, poor fit]
